PubChem BioAssay AID743121, NCATS | 2013

- Aim: 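Partners whose loss is lethal together with topoisomerase I blockade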 (primary screen)
- System: MDA-MB-231 cells, a human breast cancer line
- Reagents: single siRNA against human genes, 20 nM siRNA (0.8 pmol per well)
- Timing: 120 h (drug added 48 h after transfection, read 72 h later)
- Challenge: camptothecin 20 nM (about EC30) for 72 h; vehicle 0.1% DMSO in parallel plates
- Read-out: 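CellTiter-Glo ATP signal, scaled to control siRNA as percent viability; sensitisation given as log2 of untreated divided by camptothecin-treated viability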
- Scale: log2 vehicle/camptothecin viability: higher = stronger sensitisation to camptothecin
- Active means: 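Each gene scored by redundant siRNA activity (RSA) over its individual siRNA ratios; a gene is called active at p < 0.001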
In all, the deposit lists about 26,000 reagents; below is a part drawn at random. In the full data, 167 (0.63%) were called active. 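Calls are per gene from RSA p-values that are not deposited; an individual active-marked siRNA can sensitise only weakly.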 Unmarked entries are inactive. Reagents against one gene are numbered here. Further read-outs or replicates are left out here.

The first 2 records, to show the layout:
Target gene	reagent no.	log2 vehicle/camptothecin viability
LITAF (lipopolysaccharide induced TNF factor)	1	-0.306
LITAF (lipopolysaccharide induced TNF factor)	2	-0.263

Main list, from the first entry:
Target gene	reagent no.	log2 vehicle/camptothecin viability
LITAF (lipopolysaccharide induced TNF factor)	1	-0.306
LITAF (lipopolysaccharide induced TNF factor)	2	-0.263
LITAF (lipopolysaccharide induced TNF factor)	3	-0.27
LITAF (lipopolysaccharide induced TNF factor)	4	-0.207
TOPORS	1	-0.196
TOPORS	2	-0.316
TOPORS	3	0.019
TOPORS	4	-0.399
RXFP2 (relaxin family peptide receptor 2)	1	-0.16
RXFP2 (relaxin family peptide receptor 2)	2	-0.416
RXFP2 (relaxin family peptide receptor 2)	3	-0.285
RXFP2 (relaxin family peptide receptor 2)	4	-0.29
HERC4 (HECT and RLD domain containing E3 ubiquitin protein ligase 4)	1	-0.249
HERC4 (HECT and RLD domain containing E3 ubiquitin protein ligase 4)	2	-0.658
HERC4 (HECT and RLD domain containing E3 ubiquitin protein ligase 4)	3	-0.04
UBE2K (ubiquitin conjugating enzyme E2 K)	1	-0.515
UBE2K (ubiquitin conjugating enzyme E2 K)	2	-0.417
UBE2K (ubiquitin conjugating enzyme E2 K)	3	-0.311
UBE2K (ubiquitin conjugating enzyme E2 K)	4	-0.615
AIFM2 (AIF family member 2, ferroptosis suppressor)	1	-0.731
AIFM2 (AIF family member 2, ferroptosis suppressor)	2	-0.0752
AIFM2 (AIF family member 2, ferroptosis suppressor)	3	0.161
AIFM2 (AIF family member 2, ferroptosis suppressor)	4	-0.0977
ABCA2 (ATP binding cassette subfamily A member 2)	1	-0.366
ABCA2 (ATP binding cassette subfamily A member 2)	2	0.465
ABCA2 (ATP binding cassette subfamily A member 2)	3	-0.271
ABCA2 (ATP binding cassette subfamily A member 2)	4	-0.0772
COMMD5 (COMM domain containing 5)	1	0.0322
COMMD5 (COMM domain containing 5)	2	-0.167
COMMD5 (COMM domain containing 5)	3	-0.0633
COMMD5 (COMM domain containing 5)	4	-0.427
